# Screen size: about 390,000 compounds; about 4,000 (1%) were called active. Inconclusive results, whose numbers are uncertain, are shown with a selection of clear calls. The call rests on the fitted dose curve; in most records, active means well fitted inhibition curve with a large enough effect; inconclusive means small, poorly fitted or top-dose-only effect, or another doubt; inactive means no such curve, though single readings can be large or run the other way. A potency beside an inconclusive call is a rough fit, not a confirmed value.
# The chains behind the UniProt entries cited, without tags or fusion partners. Where a name states a change or a piece, a line headed by the entry shows the natural chain unless it says otherwise.
# UniProt Q9UNA4: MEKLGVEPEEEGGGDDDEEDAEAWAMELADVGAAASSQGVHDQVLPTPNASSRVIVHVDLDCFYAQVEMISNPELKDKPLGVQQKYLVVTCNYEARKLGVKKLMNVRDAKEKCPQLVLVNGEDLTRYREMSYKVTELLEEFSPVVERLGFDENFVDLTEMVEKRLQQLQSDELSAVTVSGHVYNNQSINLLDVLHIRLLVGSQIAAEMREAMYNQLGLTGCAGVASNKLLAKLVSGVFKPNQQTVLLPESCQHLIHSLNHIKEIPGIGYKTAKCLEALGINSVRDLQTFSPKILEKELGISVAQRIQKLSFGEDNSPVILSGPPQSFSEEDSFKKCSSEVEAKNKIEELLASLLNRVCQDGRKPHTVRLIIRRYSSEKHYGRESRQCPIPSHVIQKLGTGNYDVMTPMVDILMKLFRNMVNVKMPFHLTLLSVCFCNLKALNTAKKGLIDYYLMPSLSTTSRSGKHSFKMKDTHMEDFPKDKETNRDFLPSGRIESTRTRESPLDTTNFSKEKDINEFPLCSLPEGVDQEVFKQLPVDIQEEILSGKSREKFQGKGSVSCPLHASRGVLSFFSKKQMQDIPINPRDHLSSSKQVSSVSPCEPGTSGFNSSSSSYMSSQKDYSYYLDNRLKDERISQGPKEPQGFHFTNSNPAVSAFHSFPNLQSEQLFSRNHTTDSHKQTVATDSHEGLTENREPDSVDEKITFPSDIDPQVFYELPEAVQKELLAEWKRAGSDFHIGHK
# Target: DNA polymerase iota (Homo sapiens) (UniProt Q9UNA4)
# Assay: qHTS for Inhibitors of Polymerase Iota
# Conditions: Pol iota fluorescent replication assay, 10 min; series mostly up to 115 µM
# In short: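 Pol iota at 10 nM preincubated 15 min with compounds at room temperature; reaction started with fluorescent substrate, 50 nM final. Fluorescence read kinetically at 0 and 10 min; buffer-only wells as negative control.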
# Potency means the concentration at half of the fitted maximal effect.
row,Structure (SMILES),Potency
1,CCOC(=O)C1=C(CSc2nc(-c3ccccc3)ccc2C#N)OC(N)=C(C#N)C1c1ccccc1 (centres undefined),"inconclusive: 10 µM [inhibitor, full curve, poor fit]"
2,O=C(COC(=O)c1cc[n+]([O-])cc1)Nc1ccc(F)c([N+](=O)[O-])c1,"inconclusive: 89.1 µM [inhibitor, partial curve, poor fit]"
3,CC(=O)NN1C(=O)/C(=C\c2ccc(O)cc2)SC1=S,"inconclusive: 15.8 µM [inhibitor, single point]"
4,COc1ccccc1-c1sc2cc3c(cc2c1C#Cc1ccccn1)OCO3,"inconclusive: 15.8 µM [inhibitor, partial curve, poor fit]"
5,Cc1cc(=O)[nH]c(SCC(=O)Nc2c(C)n(C)n(-c3ccccc3)c2=O)c1C#N,"inconclusive: 89.1 µM [inhibitor, single point]"
6,Oc1ccccc1-c1nc(NCc2cccnc2)c2ccccc2n1,"inconclusive: 10 µM [inhibitor, partial curve, poor fit]"
7,C=C1c2cccc(O)c2C(=O)C2C(=O)[C@]3(O)C(=O)C(C(N)=O)C(=O)[C@@H](N(C)C)[C@@H]3[C@@H](O)[C@H]12 (some centres undefined),active: 1.26 µM
8,COC(=O)CSc1nnc(NC(=O)C2CC(=O)N(c3ccc(F)cc3)C2)s1 (centres undefined),"inconclusive: 20 µM [inhibitor, partial curve, poor fit]"
9,Cc1ccc(-c2cc(C(=O)N/N=C/C=C/c3ccco3)c3ccccc3n2)cc1C,"inconclusive: 17.8 µM [inhibitor, partial curve]"
10,COc1ccc(NC(=O)CN(C)C(=O)COc2ccccc2Cc2ccccc2)cc1,"inconclusive: 89.1 µM [inhibitor, single point]"
11,N[C@@H](C(=O)N[C@@H]1C(=O)N2C(C(=O)O)=C(Cl)CS[C@H]12)c1ccccc1,"inconclusive: 10 µM [inhibitor, full curve]"
12,O=C(NCC(c1ccc(F)cc1)N1CCOCC1)c1ccc(Br)o1 (centres undefined),"inconclusive: 79.4 µM [inhibitor, partial curve]"
13,Cc1ccccc1/C=N\NC(=O)c1csnn1,"inconclusive: 31.6 µM [inhibitor, partial curve, poor fit]"
14,O=C(CCCN1C(=O)S/C(=C/C=C/c2ccccc2)C1=O)Nc1ccc(C(=O)O)cc1,"inconclusive: 20 µM [inhibitor, full curve, poor fit]"
15,O=C(CSc1nc2ccccc2n1Cc1ccccc1)N/N=C/c1ccco1,inactive
16,O=c1nc2c(O)cccn2c2c1c(=O)[nH]c1ccccc12,"inconclusive: 17.8 µM [inhibitor, partial curve, poor fit]"
17,CSc1cccc(NC(=O)c2cnn3ccccc23)c1,inactive
18,CCN(c1ccccc1)S(=O)(=O)c1c(-c2ccc(C)cc2)csc1C(=O)OC,"inconclusive: 100 µM [inhibitor, partial curve, poor fit]"
19,NC(=O)CC(NC(=O)Cc1cccc2ccccc12)c1ccc(NCCOc2ccccc2)c([N+](=O)[O-])c1 (centres undefined),"inconclusive: 7.08 µM [inhibitor, partial curve, poor fit]"
20,COc1cccc(-n2c(SC3CCOC3=O)nc3ccccc3c2=O)c1 (centres undefined),"inconclusive: 44.7 µM [inhibitor, partial curve, poor fit]"

row,Structure (SMILES),Potency
1,COc1ccc(/C=C/C(=O)Nc2ccc3nc(N4CCC(C)CC4)cc(C)c3c2)cc1,"inconclusive: 89.1 µM [inhibitor, single point]"
2,Nc1ccc(Cl)cc1C(=O)OCC(=O)NC1CCS(=O)(=O)C1 (centres undefined),"inconclusive: 79.4 µM [inhibitor, single point]"
3,O=C1OC(c2ccccc2)/C(=C(/O)c2ccccc2)C1=O (centres undefined),"inconclusive: 44.7 µM [inhibitor, partial curve, poor fit]"
4,Cc1ccc(C(=O)N/C(=C/c2ccco2)C(=O)Nc2cccc(C(=O)O)c2)cc1,"inconclusive: 10 µM [inhibitor, full curve, poor fit]"
5,CCC1Oc2ccc(Cl)cc2N(CC(=O)NCCc2ccc(Cl)cc2)C1=O (centres undefined),"inconclusive: 20 µM [inhibitor, partial curve, poor fit]"
6,COc1ccc(S(=O)(=O)c2c(O)c3ccc(C(=O)Nc4ccc(F)cc4)cc3[nH]c2=O)cc1,"inconclusive: 89.1 µM [inhibitor, partial curve, poor fit]"
7,COc1ccc(NC(=O)[C@@H]2CC=C[C@@H]3CCN(C4CC4)C(=O)[C@@H]32)cc1,inactive
8,Cc1ccc(CO)cc1Nc1ncnc2onc(-c3ccc(F)cc3)c12,"inconclusive: 89.1 µM [inhibitor, partial curve, poor fit]"
9,Cc1ccc(-c2nc(CS(=O)CC(=O)NCc3ccc4c(c3)OCO4)c(C)o2)cc1 (centres undefined),"inconclusive: 10 µM [inhibitor, single point]"
10,Cc1cc(-c2csc(NCc3ccccc3)n2)c(C)n1C,inactive
11,CCCCC(C(=O)NC1CCCC1)N(Cc1ccco1)C(=O)Cn1nnc(-c2ccc(F)cc2)n1 (centres undefined),"inconclusive: 8.91 µM [inhibitor, single point]"
12,COc1ccc(S(=O)(=O)N2CCCCCC2)cc1C(=O)NCc1ccco1,"inconclusive: 50.1 µM [inhibitor, partial curve]"
13,CC(=O)c1cccc(NC(=O)CSc2nc3ccccc3nc2Cc2ccc(F)cc2)c1,inactive
14,Cc1cc(-c2sccc2Br)nc(-n2cccc2)n1,"inconclusive: 15.8 µM [inhibitor, full curve, poor fit]"
15,CCOc1cc(/C=C\[N+](=O)[O-])ccc1OCC(=O)Nc1ccccc1C,"inconclusive: 20 µM [inhibitor, partial curve]"
16,CC1C(=O)N(S(=O)(=O)c2ccc([N+](=O)[O-])cc2)[C@H]1c1ccc2ccccc2c1 (some centres undefined),"inconclusive: 100 µM [inhibitor, single point]"
17,CN1C(=O)C(N=Nc2ccc([N+](=O)[O-])cc2)SC1=S (centres undefined),"inconclusive: 28.2 µM [inhibitor, single point]"
18,CC(=O)n1cc([C@H]2C=C(C(N)=O)O[C@@H](OCc3ccc(CO)cc3)C2)c2ccccc21,"inconclusive: 11.2 µM [inhibitor, single point]"
19,CC1=C(c2ccc(C(C)C)cc2)S(=O)(=O)N=C1N1CCC(C(=O)NCCc2ccco2)CC1,"inconclusive: 89.1 µM [inhibitor, partial curve, poor fit]"
20,Cc1ccc(C2(C)NC(=O)N(CC(=O)c3ccc4c(c3)OCCO4)C2=O)cc1 (centres undefined),"inconclusive: 39.8 µM [inhibitor, single point]"

row,Structure (SMILES),Potency
1,O=C(Nc1ncc([N+](=O)[O-])s1)c1cccs1,"inconclusive: 11.2 µM [inhibitor, partial curve, poor fit]"
2,C=CCn1c(SCC(=O)Nc2ccc(NC(C)=O)cc2)nc2sc(C)c(C)c2c1=O,"inconclusive: 79.4 µM [inhibitor, single point]"
3,Cc1ccc(CNC(=O)CC2Oc3ccc(Cl)cc3NC2=O)cc1 (centres undefined),"inconclusive: 50.1 µM [inhibitor, single point]"
4,Cn1c(=O)c2c(nc(NN=C3CCCC3)n2C)n(C)c1=O,"inconclusive: 35.5 µM [inhibitor, single point]"
5,C/C(N)=C(/C#N)C(=O)CN1C(=O)NC(Cc2c[nH]c3ccccc23)C1=O (centres undefined),"inconclusive: 50.1 µM [inhibitor, partial curve, poor fit]"
6,Cc1cccc(NC(=O)CCS(=O)(=O)c2cc(Br)cc3c2N(C(=O)C2CC2)CC3)c1,inactive
7,Cc1ccc(N=C2NC(=O)/C(=C/c3cccn3C)S2)cc1,"inconclusive: 50.1 µM [inhibitor, partial curve, poor fit]"
8,COc1ccc2c(c1)Cc1sc(NC(C)=O)nc1-2,"inconclusive: 39.8 µM [inhibitor, single point]"
9,O=C(COC(=O)c1ccc([N+](=O)[O-])s1)NNC(=O)c1ccccc1,"inconclusive: 22.4 µM [inhibitor, partial curve, poor fit]"
10,O=C(OCC(=O)N1CCN(C(=O)c2ccco2)CC1)c1cc(-c2ccc(Cl)c(Cl)c2Cl)nc2ccccc12,"inconclusive: 0.891 µM [inhibitor, partial curve, poor fit]"
11,COc1ccc(S(=O)(=O)N(C)CC(=O)Nc2ccc(F)cc2)cc1,inactive
12,CCOC(=O)CSc1ccc(C(=O)NCCCN2CCOCC2)cc1[N+](=O)[O-],"inconclusive: 14.1 µM [inhibitor, partial curve]"
13,Cc1ccc(S(=O)(=O)N2CCCc3cc(NS(=O)(=O)c4cc(C)ccc4C)ccc32)cc1,inactive
14,O=C(C[C@H]1C[C@H](C(=O)N2CCCCC2)[C@@]2(CCc3ccccc3)c3[nH]c4cc(-c5ccco5)ccc4c3CCN2C1=O)NCc1cccc(C(F)(F)F)c1,"inconclusive: 22.4 µM [inhibitor, partial curve, poor fit]"
15,CC(C)c1nn2c(=O)cc(COC(=O)c3ccc(NC(=O)C4CCCCC4)cc3)nc2s1,inactive
16,Cc1cc(C)c2c(c1)c(C)cc1nnc(SCC(=O)NCc3ccco3)n12,"inconclusive: 35.5 µM [inhibitor, full curve, poor fit]"
17,CN(C(=O)c1ccc(NC(=O)Cc2ccc([N+](=O)[O-])cc2)cc1)C1CCCC1,"inconclusive: 89.1 µM [inhibitor, single point]"
18,COc1ccc(-c2cn3cccnc3n2)cc1NC(=O)Nc1ccc(Cl)cc1,inactive
19,COc1ccc2nc(C)cc(SCC(=O)O)c2c1,"inconclusive: 50.1 µM [inhibitor, partial curve, poor fit]"

# 2 neighbouring compounds from above, for reference:
row,Structure (SMILES),Potency
14,O=C(C[C@H]1C[C@H](C(=O)N2CCCCC2)[C@@]2(CCc3ccccc3)c3[nH]c4cc(-c5ccco5)ccc4c3CCN2C1=O)NCc1cccc(C(F)(F)F)c1,"inconclusive: 22.4 µM [inhibitor, partial curve, poor fit]"
15,CC(C)c1nn2c(=O)cc(COC(=O)c3ccc(NC(=O)C4CCCCC4)cc3)nc2s1,inactive

# From PubChem BioAssay AID588590 (National Center for Advancing Translational Sciences (NCATS), 2011)
